Literature values in patent publication US20250277247A1, “NUCLEIC ACID AMPLIFICATIONS” (priority 2012, published 2025).
For at least one compound, name, drawing or mass did not settle the structure.

Details: cited from earlier work

O=S(=O)(O)CCN1CCN(CCS(=O)(=O)O)CC1 [PIPES, piperazine-N,N′-bis(2-ethanesulfonic acid)]
Temp Effect dpKa/dT: −0.0085 1/° C.
